In PubChem BioAssay (Tox21):
Values joined by “and” are separate entries in the source; they are usually repeats but may differ in a detail not shown here. Equal entries are not always repeated. This list was built around the results that the source calls inconclusive (neither active nor inactive); the mix of calls is not that of the screen. Where the call is inconclusive, the potency comes from a doubtful curve fit. Active and inactive are the calls of the source. Calls follow the shape of the dose curve; as a rule, active = well fitted curve in the direction sought with a large enough effect in the repeat runs; inconclusive = weak or mixed curves; inactive = no such curve, though single readings can be large; an effect the other way counts as inactive or inconclusive.

Protein sequences, listed by entry. Tags and fused reporters are not part of them. Lines headed by an entry give the natural chain unless they say otherwise; changes in a name come on top.
UniProt P11712, whole entry, looked up: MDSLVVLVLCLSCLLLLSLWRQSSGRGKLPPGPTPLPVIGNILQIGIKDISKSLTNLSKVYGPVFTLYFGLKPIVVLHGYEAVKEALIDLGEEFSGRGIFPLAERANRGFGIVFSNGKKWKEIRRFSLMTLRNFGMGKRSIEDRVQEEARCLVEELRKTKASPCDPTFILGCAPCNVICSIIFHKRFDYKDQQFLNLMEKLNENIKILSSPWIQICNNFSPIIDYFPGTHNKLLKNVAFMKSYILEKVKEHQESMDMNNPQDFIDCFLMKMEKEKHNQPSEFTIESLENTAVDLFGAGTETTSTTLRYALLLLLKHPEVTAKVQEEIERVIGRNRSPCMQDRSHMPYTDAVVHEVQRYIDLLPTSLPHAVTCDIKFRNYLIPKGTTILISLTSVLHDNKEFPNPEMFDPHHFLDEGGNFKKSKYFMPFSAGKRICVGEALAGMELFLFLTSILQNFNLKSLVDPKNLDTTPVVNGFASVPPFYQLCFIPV
UniProt P05177, whole entry, looked up: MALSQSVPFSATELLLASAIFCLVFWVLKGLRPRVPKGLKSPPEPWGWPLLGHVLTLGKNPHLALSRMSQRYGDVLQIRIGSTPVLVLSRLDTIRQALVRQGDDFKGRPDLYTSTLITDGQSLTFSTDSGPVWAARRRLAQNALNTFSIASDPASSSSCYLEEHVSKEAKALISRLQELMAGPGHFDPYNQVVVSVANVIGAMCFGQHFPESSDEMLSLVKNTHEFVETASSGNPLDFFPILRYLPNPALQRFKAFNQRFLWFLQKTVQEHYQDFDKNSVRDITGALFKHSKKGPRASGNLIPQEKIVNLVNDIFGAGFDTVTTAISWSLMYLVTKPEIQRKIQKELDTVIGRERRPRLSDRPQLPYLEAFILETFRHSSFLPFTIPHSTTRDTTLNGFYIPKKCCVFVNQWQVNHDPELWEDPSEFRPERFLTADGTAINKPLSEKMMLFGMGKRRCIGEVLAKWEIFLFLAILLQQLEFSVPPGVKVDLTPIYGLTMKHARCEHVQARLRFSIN
UniProt Q12809: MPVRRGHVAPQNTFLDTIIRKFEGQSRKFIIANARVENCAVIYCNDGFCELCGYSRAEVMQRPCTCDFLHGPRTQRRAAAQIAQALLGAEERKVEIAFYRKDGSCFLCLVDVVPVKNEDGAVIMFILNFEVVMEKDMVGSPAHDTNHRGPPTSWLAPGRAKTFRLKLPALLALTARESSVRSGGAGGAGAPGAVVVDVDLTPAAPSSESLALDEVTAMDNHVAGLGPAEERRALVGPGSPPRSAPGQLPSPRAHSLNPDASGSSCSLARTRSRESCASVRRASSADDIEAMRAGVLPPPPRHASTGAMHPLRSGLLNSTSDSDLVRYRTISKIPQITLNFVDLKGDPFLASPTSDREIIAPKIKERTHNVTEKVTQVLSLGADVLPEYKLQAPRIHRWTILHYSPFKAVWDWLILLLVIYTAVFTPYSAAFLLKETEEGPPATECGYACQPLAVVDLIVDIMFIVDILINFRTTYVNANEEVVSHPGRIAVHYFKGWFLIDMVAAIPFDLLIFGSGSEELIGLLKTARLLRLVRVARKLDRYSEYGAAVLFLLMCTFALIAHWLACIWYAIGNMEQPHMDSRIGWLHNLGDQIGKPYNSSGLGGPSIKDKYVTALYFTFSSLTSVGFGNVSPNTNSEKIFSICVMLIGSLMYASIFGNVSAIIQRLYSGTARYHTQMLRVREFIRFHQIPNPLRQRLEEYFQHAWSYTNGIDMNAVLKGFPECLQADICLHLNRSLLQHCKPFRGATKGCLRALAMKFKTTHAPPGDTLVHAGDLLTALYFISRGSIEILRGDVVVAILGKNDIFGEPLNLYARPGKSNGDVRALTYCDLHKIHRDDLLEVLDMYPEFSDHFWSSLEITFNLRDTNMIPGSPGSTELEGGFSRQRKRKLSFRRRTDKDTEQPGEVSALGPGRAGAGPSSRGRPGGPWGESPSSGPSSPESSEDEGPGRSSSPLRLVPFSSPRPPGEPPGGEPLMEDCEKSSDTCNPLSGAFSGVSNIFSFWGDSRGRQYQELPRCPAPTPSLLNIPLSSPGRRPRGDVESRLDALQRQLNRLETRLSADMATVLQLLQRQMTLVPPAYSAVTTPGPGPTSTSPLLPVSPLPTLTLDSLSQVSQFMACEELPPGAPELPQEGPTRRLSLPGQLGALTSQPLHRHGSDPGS
UniProt P08684, whole entry, looked up: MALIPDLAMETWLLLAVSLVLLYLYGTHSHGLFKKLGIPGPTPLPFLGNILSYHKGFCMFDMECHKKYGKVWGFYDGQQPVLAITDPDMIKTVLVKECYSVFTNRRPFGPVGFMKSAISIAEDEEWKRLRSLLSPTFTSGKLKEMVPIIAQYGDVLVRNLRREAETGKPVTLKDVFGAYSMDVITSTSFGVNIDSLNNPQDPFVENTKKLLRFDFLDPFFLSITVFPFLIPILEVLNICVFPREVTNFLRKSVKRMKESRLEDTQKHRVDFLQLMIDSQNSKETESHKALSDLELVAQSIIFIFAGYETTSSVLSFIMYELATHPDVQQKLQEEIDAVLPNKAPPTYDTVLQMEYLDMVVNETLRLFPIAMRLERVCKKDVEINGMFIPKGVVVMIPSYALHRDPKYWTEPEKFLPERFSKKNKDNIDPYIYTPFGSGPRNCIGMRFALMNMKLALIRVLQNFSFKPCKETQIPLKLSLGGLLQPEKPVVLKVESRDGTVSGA

Key:
[1] = molecular target: Cytochrome P450 2C9 (Homo sapiens) (UniProt P11712); test: Cytochrome P450 Family 2 Subfamily C Member 9 (CYP2C9) small molecule antagonists: luciferase reporter qHTS assay (AID 1671198)
How it was run: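 Enzyme-substrate mix preincubated with compound 10 min at room temperature; reaction started with NADPH regeneration solution, 1 h 37C. Luminescent luciferin product read after 20 min detection reagent.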

[2] = molecular target: Cytochrome P450 1A2 (Homo sapiens) (UniProt P05177); test: Cytochrome P450 Family 1 Subfamily A Member 2 (CYP1A2) small molecule antagonists: luciferase reporter qHTS assay (AID 1671199)
How it was run: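 Steps: enzyme-substrate mix dispensed; test compounds and furafylline control pinned in; 10 min room temperature; NADPH regeneration solution added, 1 h; reaction stopped with luciferin detection reagent; luminescence read after 20 min.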

[3] = molecular target: Voltage-gated inwardly rectifying potassium channel KCNH2 (Homo sapiens) (UniProt Q12809); test: Human Ether-a-go-go-Related Gene (hERG) channel small molecule antagonists: fluorescence cell-based qHTS assay (AID 1671200)
How it was run: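 Measured: Tl+ flux via fluorescence (480/540 nm) in hERG-expressing U2OS cells after 1 h dye loading at room temperature.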

[4] = molecular target: Cytochrome P450 3A4 (Homo sapiens) (UniProt P08684); test: Cytochrome P450 Family 3 Subfamily A Member 4 (CYP3A4) small molecule antagonists: luciferase reporter qHTS assay (AID 1671201)
How it was run: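 Setup: enzyme-substrate mix, compound pin transfer, 10 min RT. Reaction: NADPH regeneration solution, 1 h RT. Readout: detection reagent stops turnover, luminescence measured after 20 min, expressed in relative luminescence units.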
Also: nearly all actives have a fitted effect of over 50% in size.
Potency is read from the fitted curve at half-maximal effect.

Row | Compound | Potency [1] | Potency [2] | Potency [3] | Potency [4]
1 | COC(=O)NC(=S)Nc1ccccc1NC(=S)NC(=O)OC | inconclusive: 63.3 µM [inhibitor, partial curve] | active: 31.7 µM | inactive | inconclusive: 35.6 µM [inhibitor, partial curve] and inconclusive: 28.3 µM [inhibitor]
2 | CC(C)CCCCCCCOP(=O)(Oc1ccccc1)Oc1ccccc1 | active: 6.36 µM | – | inconclusive: 11 µM [inhibitor] | inconclusive: 5.05 µM [inhibitor, full curve]
3 | O=C1c2ccccc2C(=O)N1SC(Cl)(Cl)Cl | active: 24.8 µM and active: 11.2 µM | – | active: 24.2 µM and active: 38.9 µM | –
4 | O=C(Nc1ccccc1)Nc1ccnc(Cl)c1 | active: 10 µM | active: 20 µM | – | inconclusive: 63.3 µM [inhibitor, partial curve]
5 | CCC(C)Br (stereo not given) | inactive | inactive | – | –
6 | ClC(Cl)=C(Cl)Cl | inactive | inconclusive: 70.1 µM [inhibitor, partial curve] | – | –
7 | COc1ccc(C(c2ccc(OC)cc2)C(Cl)(Cl)Cl)cc1 | active: 1.82 µM | – | inconclusive: 18.8 µM [inhibitor, partial curve] | –
8 | CCC[CH2][Sn]([CH2]CCC)([CH2]CCC)[CH2]CCC | inconclusive: 44.8 µM [inhibitor, partial curve, poor fit] | inconclusive: 71 µM [inhibitor, partial curve, poor fit] | inconclusive: 34.7 µM [inhibitor, partial curve] | –
9 | COc1ccc2[nH]cc(CCN(C(C)C)C(C)C)c2c1 | inactive | – | active: 28.2 µM | –
10 | CN(C)c1ccc(N=O)cc1 | active: 35.7 µM and active: 39.9 µM | – | – | inconclusive: 35.7 µM [inhibitor, partial curve] and inconclusive: 39.9 µM [inhibitor, partial curve]
11 | CCOC(=O)COc1cc(-c2nn(C)c(OC(F)F)c2Cl)c(F)cc1Cl | active: 6.33 µM | – | active: 34.7 µM | inconclusive: 39.9 µM [inhibitor, partial curve]
12 | COc1cc(-c2ccc(N)c(OC)c2)ccc1N | active: 12.7 µM [middle of 4 runs] | – | inactive | –
13 | CCCN(CC)CC1COC2(CCC(C(C)(C)C)CC2)O1 (stereo not given) | inconclusive: 89.4 µM [inhibitor, single point] | inconclusive: 71 µM [inhibitor, partial curve, poor fit] | inconclusive: 34.7 µM [inhibitor, partial curve] | inconclusive: 3.99 µM [inhibitor, full curve]
14 | CCC(C)c1cc([N+](=O)[O-])cc([N+](=O)[O-])c1OC(=O)C=C(C)C (stereo not given) | active: 35.6 µM | active: 35.6 µM | inconclusive: 43.6 µM [inhibitor, partial curve] | –
15 | CN(C)c1ccc(C(=O)c2ccc(N(C)C)cc2)cc1 | inconclusive: 35.2 µM [inhibitor, partial curve] and active: 31.7 µM | – | inconclusive: 38.5 µM [inhibitor, partial curve] and inconclusive: 54.9 µM [inhibitor, single point] | –
16 | Clc1ccccc1-c1ccccc1Cl | inconclusive: 51 µM [inhibitor, partial curve] | inactive | active: 27.9 µM | –
17 | CC(C)C(=O)OCC(C)(C)C(OC(=O)C(C)C)C(C)C (stereo not given) | inconclusive: 39.9 µM [inhibitor, partial curve, poor fit] | inconclusive: 39.9 µM [inhibitor, partial curve] | – | –
18 | S=C=NCCc1ccccc1 | active: 17.9 µM | – | active: 15.5 µM | –
19 | ClC1=C(Cl)C2(Cl)C3C(Cl)C=CC3C1(Cl)C2(Cl)Cl (stereo not given) | inconclusive: 22.6 µM [inhibitor, full curve] | inconclusive: 31.9 µM [inhibitor, full curve, poor fit] and inconclusive: 31.7 µM [inhibitor, partial curve] | inconclusive: 24.7 µM [inhibitor, partial curve] | active: 5.05 µM and active: 11.2 µM

In another format: entries from further up
Row,Compound,Potency [1],Potency [2],Potency [3],Potency [4]
1,COC(=O)NC(=S)Nc1ccccc1NC(=S)NC(=O)OC,"inconclusive: 63.3 µM [inhibitor, partial curve]",active: 31.7 µM,inactive,"inconclusive: 35.6 µM [inhibitor, partial curve] and inconclusive: 28.3 µM [inhibitor]"
2,CC(C)CCCCCCCOP(=O)(Oc1ccccc1)Oc1ccccc1,active: 6.36 µM,–,inconclusive: 11 µM [inhibitor],"inconclusive: 5.05 µM [inhibitor, full curve]"
3,O=C1c2ccccc2C(=O)N1SC(Cl)(Cl)Cl,active: 24.8 µM and active: 11.2 µM,–,active: 24.2 µM and active: 38.9 µM,–
4,O=C(Nc1ccccc1)Nc1ccnc(Cl)c1,active: 10 µM,active: 20 µM,–,"inconclusive: 63.3 µM [inhibitor, partial curve]"
5,CCC(C)Br (stereo not given),inactive,inactive,–,–
